From article doi:10.1101/2023.10.12.562039

T1: GFP-AGO1 (ARGONAUTE1 fused to GFP, line pAGO1:GFP-AGO1 ago1-27) (Arabidopsis thaliana) (UniProt O04379)
T1 sequence: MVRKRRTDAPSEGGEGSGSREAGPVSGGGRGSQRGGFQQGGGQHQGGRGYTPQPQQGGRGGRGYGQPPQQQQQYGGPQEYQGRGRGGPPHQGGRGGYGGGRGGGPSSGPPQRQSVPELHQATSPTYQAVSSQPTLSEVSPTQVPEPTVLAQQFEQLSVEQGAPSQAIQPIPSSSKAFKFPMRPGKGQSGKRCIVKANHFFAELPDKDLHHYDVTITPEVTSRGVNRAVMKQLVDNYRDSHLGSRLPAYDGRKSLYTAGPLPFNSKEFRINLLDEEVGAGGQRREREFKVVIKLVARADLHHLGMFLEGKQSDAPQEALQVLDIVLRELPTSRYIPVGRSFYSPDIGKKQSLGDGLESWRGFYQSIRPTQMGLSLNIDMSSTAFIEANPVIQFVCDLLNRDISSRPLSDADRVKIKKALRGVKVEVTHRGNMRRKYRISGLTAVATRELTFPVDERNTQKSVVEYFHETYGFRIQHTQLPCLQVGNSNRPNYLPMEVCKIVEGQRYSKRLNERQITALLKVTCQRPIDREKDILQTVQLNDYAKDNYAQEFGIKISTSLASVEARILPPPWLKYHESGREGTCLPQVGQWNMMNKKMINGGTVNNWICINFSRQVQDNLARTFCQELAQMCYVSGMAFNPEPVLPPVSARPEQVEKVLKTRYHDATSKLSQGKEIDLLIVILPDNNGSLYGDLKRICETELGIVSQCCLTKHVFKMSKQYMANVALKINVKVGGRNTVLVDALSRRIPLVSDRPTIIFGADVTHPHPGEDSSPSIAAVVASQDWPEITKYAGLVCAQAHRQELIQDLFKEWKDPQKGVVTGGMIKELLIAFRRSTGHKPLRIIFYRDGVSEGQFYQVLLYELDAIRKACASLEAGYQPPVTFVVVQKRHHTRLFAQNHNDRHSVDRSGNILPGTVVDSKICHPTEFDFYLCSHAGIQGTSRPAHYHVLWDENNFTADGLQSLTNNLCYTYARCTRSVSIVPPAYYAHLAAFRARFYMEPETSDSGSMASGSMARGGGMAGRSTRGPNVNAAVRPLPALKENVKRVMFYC


Molecular target: T1, GFP-AGO1 (ARGONAUTE1 fused to GFP, line pAGO1:GFP-AGO1 ago1-27) (Arabidopsis thaliana)
Experiment: affinity purification with mass spectrometry

binding | Binder
binds | RNA helicase RH12 (protein, UniProt Q9M2E0 1-498) MNTNRGRYPPGVGTGRGAPPNPDYHQSYRQQQPPQDQQYVQRGYSQNPQQMQLQQQHQQQQQQQQWSRRPQLPGNASNANEVVQQTTQPEASSDANGQDWKATLRLPPPDTRYQTADVTATKGNEFEDYFLKRDLLKGIYEKGFEKPSPIQEESIPIALTGSDILARAKNGTGKTGAFCIPVLEKIDPNNNVIQAMILVPTRELALQTSQVCKELSKYLNIQVMVTTGGTSLRDDIMRLHQPVHLLVGTPGRILDLTKKGVCVLKDCAMLVMDEADKLLSAEFQPSLEELIQFLPQNRQFLMFSATFPVTVKAFKDRHLRKPYVINLMDQLTLMGVTQYYAFVEERQKVHCLNTLFSKLQINQSIIFCNSVNRVELLAKKITELGYSCFYIHAKMVQDHRNRVFHEFRNGACRNLVCTDLFTRGIDIQAVNVVINFDFPRTSESYLHRVGRSGRFGHLGLAVNLVTYEDRFKMYQTEQELGTEIKPIPSNIDQAIYCQ
binds | RNA-binding protein 47A (protein, UniProt F4I3B3 1-445) MQTPNNNGSTDSVLPPTSAGTTPPPPLQQSTPPPQQQQQQQWQQQQQWMAAMQQYPAAAMAMMQQQQMMMYPHPQYAPYNQAAYQQHPQFQYAAYQQQQQQHHQSQQQPRGGSGGDDVKTLWVGDLLHWMDETYLHTCFSHTNEVSSVKVIRNKQTCQSEGYGFVEFLSRSAAEEALQSFSGVTMPNAEQPFRLNWASFSTGEKRASENGPDLSIFVGDLAPDVSDAVLLETFAGRYPSVKGAKVVIDSNTGRSKGYGFVRFGDENERSRAMTEMNGAFCSSRQMRVGIATPKRAAAYGQQNGSQALTLAGGHGGNGSMSDGESNNSTIFVGGLDADVTEEDLMQPFSDFGEVVSVKIPVGKGCGFVQFANRQSAEEAIGNLNGTVIGKNTVRLSWGRSPNKQWRSDSGNQWNGGYSRGQGYNNGYANQDSNMYATAAAAVPGAS
binds | RNA-binding protein 47B (protein, UniProt Q0WW84 1-435) MQTTNGSDSTLATSGATPPNQQTPPPPQQWQQQQQQQQQWMAAMQYPPAAAMMMMQQQQMLMYPHQYVPYNQGPYQQHHPQLHQYGSYQQHQHQQHKAIDRGSGDDVKTLWVGDLLHWMDETYLHSCFSHTGEVSSVKVIRNKLTSQSEGYGFVEFLSRAAAEEVLQNYSGSVMPNSDQPFRINWASFSTGEKRAVENGPDLSVFVGDLSPDVTDVLLHETFSDRYPSVKSAKVVIDSNTGRSKGYGFVRFGDENERSRALTEMNGAYCSNRQMRVGIATPKRAIANQQQHSSQAVILAGGHGSNGSMGYGSQSDGESTNATIFVGGIDPDVIDEDLRQPFSQFGEVVSVKIPVGKGCGFVQFADRKSAEDAIESLNGTVIGKNTVRLSWGRSPNKQWRGDSGQQWNGGYSRGHGYNNGGGYANHHDSNNYHGEN
binds | LARP1a (protein, UniProt Q940X9 1-826) MMAETEGSVADDRELITREGGIGTKSPWKTTTSPVETIDAPVMGAHSWPALADAAQQPRPKNPPAPAPAPPSKNIPTSIPIPTPAVTGQAKSKGGGKANPGHKNPSGRHSKPGPRSNQNGPPPPPYLVHAVPYHPPPFPPMVPLPHAAGPDFPYAPYPPYPVPVPPVTESGNEKQVQASPLPPVLPAPQGDPGKPWPHQRGFDPRNMPQGAGPRNFGRPPFMGPAPGFLVGPGPGFPGPVYYLPGPPPGAIRGPYPPRFAPYPVNQGPPILSPEKLDLRDRVLKQVEYYFSDENLENDHYLISLMDEEGWVPTKIIAGFKRVKAMTMDVDFIVYALGFSNSVEVQGDQIRKRDKWSDWIPASKKSTSAETIGDGDKDSPKSITSGDNFGNPSKGSSKPTVSDFSSEGAQSSRTNNYKSGNLKSSADEKRNVEDLSNDFSNTFLLDEELDLEHRSPRKSGLSMSKSIEYEDDDMAVDDQDIQKLVIVTQNSGKSDGAGIGGTEAKNIPKELASTINDGLYYFEQELKKKRSGRRKNNSHLDTKDGKIKSGEGLNTKLGENSAANDGGEEHGIITSRRKQNKGTHKHHTAHARRFFSSNIRNNGNISESPPSSSIGFFFGSTPPDSHGPRLSKLSSSPQCTLSGSSPPVGSLPKSFPPFQHPSHQLLEENGFKQEKYLKYRKRCLNERKKLGSGCSEEMNHLYRFWSYFLRDTFVLSMYDDFQKFALEDAAGNYDYGLECLFRFYSYGLEKHFDEDLYKDFEKLSLDFYHKGNLYGLEKYWAFHHYRGKEEPITKHPELEKLLKEEFRSIDDFRAKETITNQKENKSH
binds | RNA-binding protein 47C (protein, UniProt Q9SX79 1-432) MADVKIQSESESSDSHPVVDNQPPPPPPPPQQPAKEEENQPKTSPTPPPHWMRYPPTVIIPHQMMYAPPPFPPYHQYPNHHHLHHQSRGNKHQNAFNGENKTIWVGDLHHWMDEAYLNSSFASGDEREIVSVKVIRNKNNGLSEGYGFVEFESHDVADKVLREFNGTTMPNTDQPFRLNWASFSTGEKRLENNGPDLSIFVGDLSPDVSDNLLHETFSEKYPSVKAAKVVLDANTGRSKGYGFVRFGDENERTKAMTEMNGVKCSSRAMRIGPATPRKTNGYQQQGGYMPNGTLTRPEGDIMNTTIFVGGLDSSVTDEDLKQPFNEFGEIVSVKIPVGKGCGFVQFVNRPNAEEALEKLNGTVIGKQTVRLSWGRNPANKQPRDKYGNQWVDPYYGGQFYNGYGYMVPQPDPRMYPAAPYYPMYGGHQQQVS
binds | PAB8 (protein, UniProt Q9FXA2 1-671) MAQIQHQGQNANGGVAVPGAAAAEAAAAAAGAAAAAAGAAQQGTTSLYVGDLDATVTDSQLFEAFTQAGQVVSVRVCRDMTTRRSLGYGYVNYATPQDASRALNELNFMALNGRAIRVMYSVRDPSLRKSGVGNIFIKNLDKSIDHKALHETFSAFGPILSCKVAVDPSGQSKGYGFVQYDTDEAAQGAIDKLNGMLLNDKQVYVGPFVHKLQRDPSGEKVKFTNVYVKNLSESLSDEELNKVFGEFGVTTSCVIMRDGEGKSKGFGFVNFENSDDAARAVDALNGKTFDDKEWFVGKAQKKSERETELKQKFEQSLKEAADKSQGSNLYVKNLDESVTDDKLREHFAPFGTITSCKVMRDPSGVSRGSGFVAFSTPEEATRAITEMNGKMIVTKPLYVALAQRKEDRKARLQAQFSQMRPVNMPPAVGPRMQMYPPGGPPMGQQLFYGQGPPAMIPQPGFGYQQQLVPGMRPGGSPMPNFFMPMMQQGQQQQQQQQQQQRPGGGRRGALPQPQQPSPMMQQQMHPRGRMYRYPQRDVNTMPGPTQNMLSVPYDVSSGGGVHHRDSPTSQPVPIVALATRLANAAPEQQRTMLGENLYPLVEQLEPESAAKVTGMLLEMDQTEVLHLLESPEALKAKVTEAMDVLRSVAQQQAGGAADQLASLSLGDNIVP
binds | AGO5 (protein, UniProt Q9SJK3 1-997) MSNRGGGGHGGASRGRGGGRRSDQRQDQSSGQVAWPGLQQSYGGRGGSVSAGRGRGNVGRGENTGDLTATQVPVASAVSGGRGRGNIGDPTFSVASSSKTVSVASSSKEESKNTEVSETMSNLQITSTETKPEMTSLPPASSKAVTFPVRPGRGTLGKKVMVRANHFLVQVADRDLYHYDVSINPEVISKTVNRNVMKLLVKNYKDSHLGGKSPAYDGRKSLYTAGPLPFDSKEFVVNLAEKRADGSSGKDRPFKVAVKNVTSTDLYQLQQFLDRKQREAPYDTIQVLDVVLRDKPSNDYVSVGRSFFHTSLGKDARDGRGELGDGIEYWRGYFQSLRLTQMGLSLNIDVSARSFYEPIVVTDFISKFLNIRDLNRPLRDSDRLKVKKVLRTLKVKLLHWNGTKSAKISGISSLPIRELRFTLEDKSEKTVVQYFAEKYNYRVKYQALPAIQTGSDTRPVYLPMELCQIDEGQRYTKRLNEKQVTALLKATCQRPPDRENSIKNLVVKNNYNDDLSKEFGMSVTTQLASIEARVLPPPMLKYHDSGKEKMVNPRLGQWNMIDKKMVNGAKVTSWTCVSFSTRIDRGLPQEFCKQLIGMCVSKGMEFKPQPAIPFISCPPEHIEEALLDIHKRAPGLQLLIVILPDVTGSYGKIKRICETELGIVSQCCQPRQVNKLNKQYMENVALKINVKTGGRNTVLNDAIRRNIPLITDRPTIIMGADVTHPQPGEDSSPSIAAVVASMDWPEINKYRGLVSAQAHREEIIQDLYKLVQDPQRGLVHSGLIREHFIAFRRATGQIPQRIIFYRDGVSEGQFSQVLLHEMTAIRKACNSLQENYVPRVTFVIVQKRHHTRLFPEQHGNRDMTDKSGNIQPGTVVDTKICHPNEFDFYLNSHAGIQGTSRPAHYHVLLDENGFTADQLQMLTNNLCYTYARCTKSVSIVPPAYYAHLAAFRARYYMESEMSDGGSSRSRSSTTGVGQVISQLPAIKDNVKEVMFYC
binds | RNA helicase RH6 (protein, UniProt Q94BV4 1-528) MNNNNNNRGRFPPGIGAAGPGPDPNFQSRNPNPPQPQQYLQSRTPFPQQPQPQPPQYLQSQSDAQQYVQRGYPQQIQQQQQLQQQQQQQQQQQEQQWSRRAQLPGDPSYIDEVEKTVQSEAISDSNNEDWKATLKLPPRDNRYQTEDVTATKGNEFEDYFLKRDLLRGIYEKGFEKPSPIQEESIPIALTGSDILARAKNGTGKTGAFCIPTLEKIDPENNVIQAVILVPTRELALQTSQVCKELSKYLKIEVMVTTGGTSLRDDIMRLYQPVHLLVGTPGRILDLAKKGVCVLKDCAMLVMDEADKLLSVEFQPSIEELIQFLPESRQILMFSATFPVTVKSFKDRYLKKPYIINLMDQLTLMGVTQYYAFVEERQKVHCLNTLFSKLQINQSIIFCNSVNRVELLAKKITELGYSCFYIHAKMVQDHRNRVFHDFRNGACRNLVCTDLFTRGIDIQAVNVVINFDFPRTSESYLHRVGRSGRFGHLGLAVNLVTYEDRFKMYQTEQELGTEIKPIPSLIDKAIYCQ

These are yes or no findings as the source states them, for the method shown. Binding seen in cells or lysates may run through a third protein. A yes stands for co-enrichment or nearness to the bait. Other partners may have been found. Where a sequence is shown, tags or fusion partners need not be part of it.
